The list shows only some results of the screen, not a fair sample: it gathers tests that were run many times, whatever their T/C, doses with no T/C, and many T/C values between a quarter and a half above the control. Other doses and runs of a compound stand elsewhere. T/C: endpoint of the treated group in % of that of the vehicle group. Some T/C values carry the count of animals alive at the toxicity check (mostly the fifth day); where none is given, no animal had died by that day. Schedule codes are those of the source, taken here to give the interval after Q, in days (D) or hours (H), and the number of doses after X. Some doses have a count of surviving animals in place of a T/C: the source holds a T/C of zero for them, seemingly a mark for toxic or unscored doses. Some survivor counts are full or nearly so, which does not show that the dose was tolerated: survival well below the control is almost never listed, so the zero probably covers shortened survival too. Survivors were counted at the toxicity check, usually on the fifth day, unless a day is given; later deaths do not show. Marks such as (2×) say how often a value occurs here. Some entries were tested several times; the values are given in rising order. Where survival is the endpoint, this PubChem deposit counts one and a half times the control or more as active, and values a quarter to a half above the control carry no call in these data; other NCI protocols may use other cut-offs.
System: BDF1 mice, s.c. Lewis lung carcinoma, T/C %
Experiment: NCI In Vivo Anticancer Drug Screen. Data for tumor model Lewis Lung Carcinoma (subcutaneous) in B6D2F1 (BDF1) mice
Method in brief: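 The value reflects a ratio in which the treated cohort's survival time or tumour size is compared against mice receiving only vehicle.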

[1] = T/C endpoint: median survival time, dose: 60.0 mg/kg/injection, schedule: Q04DX003 (ip), vehicle: saline, higher T/C = longer survival
[2] = T/C endpoint: median survival time, dose: 50.0 mg/kg/injection, schedule: Q01DX009 (ip), vehicle: Klucel (hydroxypropylcellulose) (HPC), higher T/C = longer survival
[3] = T/C endpoint: median survival time, dose: 32.0 mg/kg/injection, schedule: Q01DX009 (ip), vehicle: saline, higher T/C = longer survival

With COc1cc([C@@H]2c3cc4c(cc3[C@@H](OC3OC5COC(C)OC5C(O)C3O)[C@H]3COC(=O)[C@H]23)OCO4)cc(OC)c1O (stereo partly specified) the T/C (T/C endpoint: median survival time, dose: 8.0 mg/kg/injection, schedule: Q01DX009 (ip), vehicle: saline, higher T/C = longer survival) was 130 % of control, the T/C (T/C endpoint: median survival time, dose: 12.0 mg/kg/injection, schedule: Q01DX009 (ip), vehicle: saline, higher T/C = longer survival) was 135 % of control and the survivor count (T/C endpoint: median survival time, dose: 18.0 mg/kg/injection, schedule: Q01DX009 (ip), vehicle: saline, higher T/C = longer survival) was 9 of 10 on day 10. The T/C (T/C endpoint: median survival time, dose: 20.0 mg/kg/injection, schedule: Q04DX003 (ip), vehicle: saline, higher T/C = longer survival) was 136 % of control, the T/C (T/C endpoint: median survival time, dose: 40.0 mg/kg/injection, schedule: Q04DX003 (ip), vehicle: saline, higher T/C = longer survival) was 134 and 136 % of control and the T/C (T/C endpoint: median survival time, dose: 40.0 mg/kg/injection, schedule: Q04DX003 (sc), vehicle: saline, higher T/C = longer survival) was 138 % of control. The T/C [1] was 147 % of control, the survivor count [1] was 10 of 10 on day 10 and the survivor count (T/C endpoint: median survival time, dose: 60.0 mg/kg/injection, schedule: Q04DX003 (sc), vehicle: saline, higher T/C = longer survival) was 10 of 10 on day 10. For the same compound, the survivor count (T/C endpoint: median survival time, dose: 80.0 mg/kg/injection, schedule: Q04DX003 (ip), vehicle: saline, higher T/C = longer survival) was 7 of 10 on day 10 and the survivor count (T/C endpoint: median survival time, dose: 80.0 mg/kg/injection, schedule: Q04DX003 (sc), vehicle: saline, higher T/C = longer survival) was 8 of 10 on day 10.
With O=C(Nc1ccc2c(c1)Cc1cccc(NC(=O)C(Cl)Cl)c1-2)C(Cl)Cl the survivor count (T/C endpoint: mean tumor weight, dose: 90.0 mg/kg/injection, schedule: Q01DX011 (ip), vehicle: carboxymethylcellulose (CMC), higher T/C = larger tumour) was 1 of 6, the survivor count (T/C endpoint: mean tumor weight, dose: 180.0 mg/kg/injection, schedule: Q01DX011 (ip), vehicle: carboxymethylcellulose (CMC), higher T/C = larger tumour) was 1 of 6 and 2 of 6 and the survivor count (T/C endpoint: mean tumor weight, dose: 270.0 mg/kg/injection, schedule: Q01DX011 (ip), vehicle: carboxymethylcellulose (CMC), higher T/C = larger tumour) was 3 of 6. The T/C (T/C endpoint: mean tumor weight, dose: 400.0 mg/kg/injection, schedule: Q01DX011 (ip), vehicle: carboxymethylcellulose (CMC), evaluated on day 12, higher T/C = larger tumour) was 135 % of control [4 of 6 alive] and the survivor count (T/C endpoint: mean tumor weight, dose: 400.0 mg/kg/injection, schedule: Q01DX011 (ip), vehicle: carboxymethylcellulose (CMC), higher T/C = larger tumour) was 2 of 6.
For C1=CC2(OCCO2)C2CC=CC3(OCCO3)C2C1 (stereo unspecified), the survivor count [2] was 10 of 10 and the survivor count (T/C endpoint: median survival time, dose: 200.0 mg/kg/injection, schedule: Q01DX009 (ip), vehicle: Klucel (hydroxypropylcellulose) (HPC), higher T/C = longer survival) was 2 of 10.
In the case of Cc1c(N)nc([C@H](CC(N)=O)NC[C@H](N)C(N)=O)nc1C(=O)N[C@H](C(=O)N[C@H](C)[C@@H](O)[C@H](C)C(=O)N[C@H](C(=O)NCCc1nc(-c2nc(C(=O)NCCC[S+](C)C)cs2)cs1)[C@@H](C)O)C(OC1OC(CO)C(O)C(O)C1OC1OC(CO)C(O)C(OC(N)=O)C1O)c1cnc[nH]1 (stereo partly specified), the T/C (T/C endpoint: median survival time, dose: 2.0 mg/kg/injection, schedule: Q01DX009 (ip), vehicle: saline, higher T/C = longer survival) is reported as 125 and 126 % of control, the T/C (T/C endpoint: median survival time, dose: 2.0 mg/kg/injection, schedule: Q01DX009 (ip), vehicle: water, higher T/C = longer survival) is reported as 133 % of control and the T/C (T/C endpoint: median survival time, dose: 4.0 mg/kg/injection, schedule: Q01DX009 (ip), vehicle: saline, evaluated on day 5, higher T/C = longer survival) is reported as 127 % of control. For the same compound, the T/C (T/C endpoint: median survival time, dose: 4.0 mg/kg/injection, schedule: Q01DX009 (ip), vehicle: saline, evaluated on day 60, higher T/C = longer survival) was 111, 112, 116 % of control [9 of 10 alive], the T/C (T/C endpoint: median survival time, dose: 8.0 mg/kg/injection, schedule: Q01DX009 (ip), vehicle: saline, evaluated on day 5, higher T/C = longer survival) was 100 % of control and the T/C (T/C endpoint: median survival time, dose: 8.0 mg/kg/injection, schedule: Q01DX009 (ip), vehicle: saline, evaluated on day 60, higher T/C = longer survival) was 100, 121, 127 % of control. For the same compound, the T/C (T/C endpoint: median survival time, dose: 8.0 mg/kg/injection, schedule: Q01DX009 (ip), vehicle: water, higher T/C = longer survival) was 127 % of control, the T/C (T/C endpoint: median survival time, dose: 13.3 mg/kg/injection, schedule: Q01DX009 (ip), vehicle: water, higher T/C = longer survival) was 135 % of control and the T/C (T/C endpoint: median survival time, dose: 15.0 mg/kg/injection, schedule: Q01DX010 (ip), vehicle: water, higher T/C = longer survival) was 142 % of control. For the same compound, the T/C (T/C endpoint: median survival time, dose: 16.0 mg/kg/injection, schedule: Q01DX009 (ip), vehicle: saline, higher T/C = longer survival) was 125 % of control, the survivor count (T/C endpoint: median survival time, dose: 16.0 mg/kg/injection, schedule: Q01DX009 (ip), vehicle: water, higher T/C = longer survival) was 10 of 10 (2×) and the T/C (T/C endpoint: median survival time, dose: 22.5 mg/kg/injection, schedule: Q01DX010 (ip), vehicle: water, higher T/C = longer survival) was 142 % of control. The T/C [3] was 128 % of control, the survivor count [3] was 10 of 10 and 8 of 8 and the survivor count (T/C endpoint: median survival time, dose: 32.0 mg/kg/injection, schedule: Q01DX009 (ip), vehicle: water, higher T/C = longer survival) was 10 of 10 (2×). For the same compound, the survivor count (T/C endpoint: median tumor weight (est.), dose: 16.0 mg/kg/injection, schedule: Q01DX009 (ip), vehicle: water, higher T/C = larger tumour) was 5 of 10 on day 14, the survivor count (T/C endpoint: median tumor weight (est.), dose: 32.0 mg/kg/injection, schedule: Q01DX009 (ip), vehicle: saline, higher T/C = larger tumour) was 4 of 10 and the survivor count (T/C endpoint: median tumor weight (est.), dose: 32.0 mg/kg/injection, schedule: Q01DX009 (ip), vehicle: water, higher T/C = larger tumour) was 0 of 10 on day 14.
For CN(Cc1cnc2nc(N)nc(N)c2n1)c1ccc(C(=O)N[C@@H](CCC(=O)O)C(=O)O)cc1, the survivor count (T/C endpoint: mean tumor weight, dose: 3.0 mg/kg/injection, schedule: Q01DX011 (ip), vehicle: alkali diluted with saline, higher T/C = larger tumour) was 2 of 10, the survivor count (T/C endpoint: median survival time, dose: 0.5 mg/kg/injection, schedule: Q01DX009 (ip), vehicle: saline, higher T/C = longer survival) was 10 of 10 and the survivor count (T/C endpoint: median survival time, dose: 1.0 mg/kg/injection, schedule: Q01DX009 (ip), vehicle: saline with Tween-80, higher T/C = longer survival) was 10 of 10. For the same compound, the T/C (T/C endpoint: median survival time, dose: 2.0 mg/kg/injection, schedule: Q01DX009 (ip), vehicle: Klucel (hydroxypropylcellulose) (HPC), higher T/C = longer survival) was 132 % of control, the survivor count (T/C endpoint: median survival time, dose: 2.0 mg/kg/injection, schedule: Q01DX009 (ip), vehicle: saline with Tween-80, higher T/C = longer survival) was 10 of 10 and 9 of 9 and the survivor count (T/C endpoint: median survival time, dose: 4.0 mg/kg/injection, schedule: Q01DX009 (ip), vehicle: saline with Tween-80, higher T/C = longer survival) was 9 of 10 and 10 of 10. For the same compound, the survivor count (T/C endpoint: median survival time, dose: 4.0 mg/kg/injection, schedule: Q01DX009 (ip), vehicle: saline, higher T/C = longer survival) was 10 of 10, the survivor count (T/C endpoint: median tumor weight (est.), dose: 2.0 mg/kg/injection, schedule: Q01DX009 (ip), vehicle: saline with Tween-80, higher T/C = larger tumour) was 5 of 9 and the survivor count (T/C endpoint: median tumor weight (est.), dose: 4.0 mg/kg/injection, schedule: Q01DX009 (ip), vehicle: saline with Tween-80, higher T/C = larger tumour) was 5 of 10.
COc1cc(C=Nc2ccc(-c3nc(Cc4ccccc4)sc3C)cc2)ccc1N(CCCl)CCCl was tested, and the survivor count [2] was 10 of 10 and the survivor count (T/C endpoint: median survival time, dose: 100.0 mg/kg/injection, schedule: Q01DX009 (ip), vehicle: Klucel (hydroxypropylcellulose) (HPC), higher T/C = longer survival) was 9 of 10.
With CN(Cc1cnc2nc(N)nc(N)c2n1)c1c(Cl)cc(C(=O)NC(CCC(=O)O)C(=O)O)cc1Cl (stereo unspecified) the T/C (T/C endpoint: median survival time, dose: 60.0 mg/kg/injection, schedule: Q01DX009 (ip), vehicle: sodium bicarbonate, higher T/C = longer survival) was 128 % of control, the survivor count (T/C endpoint: median survival time, dose: 135.0 mg/kg/injection, schedule: Q01DX009 (ip), vehicle: sodium bicarbonate, higher T/C = longer survival) was 10 of 10 and the survivor count (T/C endpoint: median survival time, dose: 1260.0 mg/kg/injection, schedule: Q04DX003 (ip), vehicle: sodium bicarbonate, higher T/C = longer survival) was 6 of 10.
In the case of c1cc[c]([Sn]([S][Sn]([c]2ccccc2)([c]2ccccc2)[c]2ccccc2)([c]2ccccc2)[c]2ccccc2)cc1, the survivor count (T/C endpoint: median survival time, dose: 400.0 mg/kg/injection, schedule: Q01DX009 (ip), vehicle: saline with Tween-80, higher T/C = longer survival) is reported as 10 of 10.
